{"source": "PubChem BioAssay AID652259 (Drosophila RNAi Screening Center, 2013)", "screen": "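Genome-wide hunt for genes that control Wingless pathway activity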 (primary screen)", "cells": "Drosophila clone 8 imaginal disc epithelial cells", "reagent": "long dsRNA against Drosophila genes", "conditions": "pathway stimulated by co-transfected Wingless expression plasmid", "measured": "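Dual luciferase reads per well after Wingless plasmid stimulation: reporter firefly light and Renilla control light; activity is firefly divided by Renilla, a ratio not deposited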", "scale": "firefly reporter light: higher = more Wg reporter light, before normalisation; Renilla control light: higher = more transfected or surviving cells", "active means": "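a knock-down is a candidate when at least two out of four statistical tests show it departing from its plate mean; one test alone signals a weak candidate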", "calls": "active = candidate regulator (raises or lowers reporter); inactive = not a candidate", "note": "In all, the deposit lists about 22,000 reagents; this is an unselected part of those that have a named target and a result. In the full data, 233 (1.1%) are marked active. 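Light values are raw, unnormalised plate reads; the ratio scores behind the reporter calls were not deposited.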 A number with no mark means an inactive call. Reagents against one gene are numbered here. Not given: the amount of reagent, the time to read-out, the dose of the treatment."}
{"Gene":"Tab2","reagent":1,"firefly reporter light, replicate 1":4537,"Renilla control light, replicate 1":1501}
{"Gene":"Vps29","reagent":1,"firefly reporter light, replicate 1":7760,"Renilla control light, replicate 1":3394}
{"Gene":"mgl","reagent":1,"firefly reporter light, replicate 1":24232,"Renilla control light, replicate 1":11076}
{"Gene":"mgl","reagent":2,"firefly reporter light, replicate 1":1531,"firefly reporter light, replicate 2":7268,"Renilla control light, replicate 1":600,"Renilla control light, replicate 2":1621}
{"Gene":"mgl","reagent":3,"firefly reporter light, replicate 1":20519,"Renilla control light, replicate 1":8992}
{"Gene":"mgl","reagent":4,"firefly reporter light, replicate 1":18432,"Renilla control light, replicate 1":9792}
{"Gene":"Cp110","reagent":1,"firefly reporter light, replicate 1":5066,"firefly reporter light, replicate 2":7857,"Renilla control light, replicate 1":1776,"Renilla control light, replicate 2":3157}
{"Gene":"Cp110","reagent":2,"firefly reporter light, replicate 1":4.22e5,"firefly reporter light, replicate 2":4.28e5,"Renilla control light, replicate 1":2.22e5,"Renilla control light, replicate 2":1.78e5}
{"Gene":"Cyp6a16Psi (retired record)","reagent":1,"firefly reporter light, replicate 1":2057,"firefly reporter light, replicate 2":3571,"Renilla control light, replicate 1":850,"Renilla control light, replicate 2":1050}
{"Gene":"Tsp74F","reagent":1,"firefly reporter light, replicate 1":8843,"Renilla control light, replicate 1":3760}
{"Gene":"Phf7","reagent":1,"firefly reporter light, replicate 1":4441,"firefly reporter light, replicate 2":5877,"Renilla control light, replicate 1":971,"Renilla control light, replicate 2":2320}
{"Gene":"CG14684","reagent":1,"firefly reporter light, replicate 1":18264,"Renilla control light, replicate 1":4291}
{"Gene":"CG9416","reagent":1,"firefly reporter light, replicate 1":6993,"Renilla control light, replicate 1":2568}
{"Gene":"su(sable)","reagent":1,"firefly reporter light, replicate 1":20768,"Renilla control light, replicate 1":13861}
{"Gene":"CG13579","reagent":1,"firefly reporter light, replicate 1":2810,"firefly reporter light, replicate 2":6947,"Renilla control light, replicate 1":930,"Renilla control light, replicate 2":2995}
{"Gene":"T48","reagent":1,"firefly reporter light, replicate 1":7216,"Renilla control light, replicate 1":3157}
{"Gene":"CG3434","reagent":1,"firefly reporter light, replicate 1":3651,"Renilla control light, replicate 1":1921}
{"Gene":"CG6106","reagent":1,"firefly reporter light, replicate 1":19544,"Renilla control light, replicate 1":8439}
{"Gene":"CG6403","reagent":1,"firefly reporter light, replicate 1":10426,"Renilla control light, replicate 1":3596}
{"Gene":"CG15544","reagent":1,"firefly reporter light, replicate 1":8176,"Renilla control light, replicate 1":3186}
{"Gene":"synr","reagent":1,"firefly reporter light, replicate 1":3776,"firefly reporter light, replicate 2":4916,"Renilla control light, replicate 1":1783,"Renilla control light, replicate 2":1052}
{"Gene":"MTF-1","reagent":1,"firefly reporter light, replicate 1":2582,"Renilla control light, replicate 1":487}
{"Gene":"MTF-1","reagent":2,"firefly reporter light, replicate 1":8265,"Renilla control light, replicate 1":3377}
{"Gene":"MTF-1","reagent":3,"firefly reporter light, replicate 1":3.44e5,"firefly reporter light, replicate 2":3.55e5,"Renilla control light, replicate 1":1.70e5,"Renilla control light, replicate 2":1.65e5}
{"Gene":"Lcp4","reagent":1,"firefly reporter light, replicate 1":5143,"firefly reporter light, replicate 2":7501,"Renilla control light, replicate 1":1224,"Renilla control light, replicate 2":2576}

Laid out differently: results already given
Gene,reagent,"firefly reporter light, replicate 1","firefly reporter light, replicate 2","Renilla control light, replicate 1","Renilla control light, replicate 2"
CG15544,1,8176,,3186,
synr,1,3776,4916,1783,1052
